Source: patent US20070128672A1

Legend:
Test in all cases: cross reactivity ELISA, Fab detected with 9E10 and AP goat anti-mouse
early pregnancy factor = molecular target: early pregnancy factor
insulin = molecular target: insulin
[1] = molecular target: keyhole limpet haemocyanin (keyhole limpet)

B1: Fab clone 1159.8 (Fab, V domains shown)
VH: VQLLESGGGLIQPGRSLRLSCTASGFPFGDSAMTWFRQAPGKGLEWVGFIRSKAYGAATAYAASMKGRVTISRDDAKSIAYLHMSRLKIEDTAVYFCSRVKAGGPDYWGQGTLVTVSS
VL: AAELTQSPLSLPVIPGEPASISCRSSQSLLHRNGYNYLDWYLQKPGQSPQLLIYLGSTRASGVPDRFSGSGSGTDFTLNIRRVEAEDVGVYYCMQGLQTPYTFGEGTKVEIK
binding (early pregnancy factor): no binding (tested: antigen coated at 2 µg/ml) | binding (insulin): no binding (tested: antigen coated at 5 µg/ml) | binding [1]: no binding (tested: antigen coated at 1 µg/ml)

No constants are given. Whether binding was seen depends on the method and setting.
